# Some of these results come from one statement about several compounds together.
# Tested on: rat cortical synaptosomes
# Assay: glutamate-induced 45Ca2+ uptake into rat cortical synaptosomes (P2-fraction)
# Format: cell-based
# Conditions: compound at 100 µM; glutamate-stimulated; synaptosomes of newborn Wistar rats; 5 minutes at 37°C; control = 100%
# Text: Neuroprotective action of the synthesized compounds was studied in P2-fraction of the rat brain cortex synaptosomes as an in vitro convenient model for evaluation of the ability of various compounds to influence calcium uptake into the nerve endings. In the present invention, the applicant used the method of detecting the uptake of ^45Ca^2+ into rat cortical synaptosomes when stimulated with glutamic acid.
# Synaptosomes were obtained from the cerebral cortex of newborn Wistar rats (9-10 days) according to Hayosh's standard procedure [Hajos F.// Brain Res., 1975, Vol.93, No 3, pp. 485-489]. The brain was homogenized (glass-teflon) in 10 volumes of 0.32 M chilled sucrose (900 rpm). The homogenate was centrifuged for 10 minutes at 1500 g. The resulting supernatant was centrifuged for 20 minutes at 10000 g. To accumulate the radioactive label, the P2-synaptosomal fraction was suspended in incubation buffer A (132 mM NaCl, 5 mM KCl, 5 mM HEPES, 10 mM glucose, pH 7.4 (protein concentration of 1.5-2 mg/ml)). The final concentration of Ca^2+ was 1.25 mM (1.4 µCi/ml). […] glutamate was used to stimulate the uptake of ^45Ca^2+ in synaptosomes. After 5 minutes of the incubation with glutamate at 37°C, the uptake of ^45Ca^2+ was stopped by filtration through GF/B filters (Whatman, England), washing three times with cold buffer B (145 mM KCl, 10 mM Tris, 5.4 mM Trilon B, pH 7.4) [L.N. Petrova, S.O. Bachurin // Bull. Exp. Biol. Med., 2006., Vol. 142, No 7, pp.51-54]. The samples were analyzed by liquid scintillation beta analyzer (Russia). All tests were performed in three parallel replications in 2-3 independent experiments. The amount of ^45Ca^2+ uptaced into synaptosomes was determined by the difference in the content of the label in the glutamate-induced uptake into synaptosomes and uptake into synaptosomes without agonist, and expressed as percentages of the control (control = 100%).
# Specific uptake of ^45Ca^2+ was calculated according to the following formula: K(43/21) = [(Ca4-Ca3)/(Ca2-Ca1)]⋅100%, [formula] wherein Ca1 is uptake of ^45Ca^2+ in the control (without glutamate and a test compound), Ca2 is uptake of ^45Ca^2+ in the presence of glutamate, Ca3 is uptake of ^45Ca^2+ in the presence of a test compound (without glutamate), Ca4 is uptake of ^45Ca^2+ in the presence of glutamate and a test compound. Statistical analysis was performed according to Student's test.
# Testing of the compounds was performed at a concentration of 100 µM. Compounds 1-9 which have an inhibitory effect on the ^45Ca^2+ uptake into rat cortical synaptosomes were examined in detail at four different concentrations to determine the IC50 value (concentration of a compound at which 50% inhibition of calcium uptake takes place).
row,SMILES,^45Ca^2+ uptake (% vs. control)
1,"CCCCN(CCCC)C(=O)CC(C(=O)N(CCCC)CCCC)P(=O)(c1cc(C)ccc1C)c1cc(C)ccc1C (stereo not shown) [Compound 3, N^1,N^1,N^4,N^4-tetrabutyldiamide of 2-[bis(2,5-dimethylphenyl)-phosphinoyl]succinic acid]",inhibit completely or significantly the calcium uptake
2,"CCCCN(CCCC)C(=O)CC(CP(=O)(c1cc(C)ccc1C)c1cc(C)ccc1C)C(=O)N(CCCC)CCCC (stereo not shown) [Compound 9, N^1,N^1,N^4,N^4-tetrabutyldiamide of 2-[bis(2,5-dimethylphenyl)-phosphinoylmethyl]succinic acid]",inhibit completely or significantly the calcium uptake
3,"CCN(CC)C(=O)CP(=O)(c1ccccc1)c1ccccc1 [Compound 17, N,N-Diethylamide of 2-(diphenylphosphinoyl)acetic acid, reference compound]",only a slight change in the level of the calcium uptake compared with that in the control
4,"CCN(CC)C(=O)CC(CP(=O)(c1ccccc1)c1ccccc1)C(=O)N(CC)CC (stereo not shown) [Compound 10, N^1,N^1,N^4,N^4-tetraethyldiamide of 2-(diphenylphosphinoylmetyl)succinic acid]",inhibit completely or significantly the calcium uptake
5,"CCCCN(CCCC)C(=O)CC(C(=O)N(CCCC)CCCC)P(=O)(c1ccc(Cl)cc1)c1ccc(Cl)cc1 (stereo not shown) [Compound 5, N^1,N^1,N^4,N^4-tetrabutyldiamide of 2-[bis(4-chlorophenyl)-phosphinoyl]succinic acid]",inhibit completely or significantly the calcium uptake
6,"Cc1ccc(C)c(P(=O)(c2cc(C)ccc2C)C(CC(=O)O)C(=O)O)c1 (stereo not shown) [Compound 12, 2-[bis-(2,5-Dimethylphenyl)-phosphinoyl]succinic acid, reference compound]",only a slight change in the level of the calcium uptake compared with that in the control
7,"CCCCN(CCCC)C(=O)CP(=O)(c1ccccc1)c1ccccc1 [Compound 16, N,N-Dibutylamide of 2-(diphenylphosphinoyl)acetic acid, reference compound]",only a slight change in the level of the calcium uptake compared with that in the control
8,"CN(C)c1ccc(P(=O)(c2ccc(N(C)C)cc2)C(CC(=O)O)C(=O)O)cc1 (stereo not shown) [Compound 11, 2-[bis-(4-Dimethylaminophenyl)-phosphinoyl]succinic acid, reference compound]",only a slight change in the level of the calcium uptake compared with that in the control
9,"CCN(CC)CC(C(=O)N(CC)CC)P(=O)(c1ccccc1)c1ccccc1 (stereo not shown) [Compound 18, N,N-Diethylamide of 2-(diphenylphosphinoyl)-3-(diethylamino)propionic acid, reference compound]",only a slight change in the level of the calcium uptake compared with that in the control
10,"CCP(=O)(CC)C(CC(=O)O)C(=O)O (stereo not shown) [Compound 13, 2-(Diethylphosphinoyl)succinic acid, reference compound]",only a slight change in the level of the calcium uptake compared with that in the control
11,"CCCCN(CCCC)C(=O)CC(C(=O)N(CCCC)CCCC)P(=O)(CCCC)CCCC (stereo not shown) [Compound 7, N^1,N^1,N^4,N^4-tetrabutyldiamide of 2-(di-n-butylphosphinoyl)succinic acid]",inhibit completely or significantly the calcium uptake
12,"CCCCN(CCCC)C(=O)CC(C(=O)N(CCCC)CCCC)P(=O)(c1ccc(OC)cc1)c1ccc(OC)cc1 (stereo not shown) [Compound 6, N^1,N^1,N^4,N^4-tetrabutyldiamide of 2-[bis(4-methoxyphenyl)-phosphinoyl]succinic acid]",inhibit completely or significantly the calcium uptake
13,"CCCCN(CCCC)C(=O)CC(C(=O)N(CCCC)CCCC)P(=O)(c1ccc(N(C)C)cc1)c1ccc(N(C)C)cc1 (stereo not shown) [Compound 4, N^1,N^1,N^4,N^4-tetrabutyldiamide of 2-[bis(4-dimethylaminophenyl)-phosphinoyl]succinic acid]",inhibit completely or significantly the calcium uptake

# Source: patent EP2660245A1, “PHYSIOLOGICALLY ACTIVE BIS-DIALKYLAMIDES OF PHOSPHORYL-SUBSTITUTED 1,4-DICARBOXYLIC ACIDS AND METHOD FOR PRODUCING SAME” (Federalnoe Gosudarstvennoe Bydzhetnoe Uchrezhdenie Nauki …, priority 2010, dated 2012)
